# Laboratory results taken from PubChem BioAssay AID504389 (National Center for Advancing Translational Sciences (NCATS), 2011).
# By UniProt entry, the sequences of proteins in these tests, tags left out.
# UniProt P16473, whole entry, looked up: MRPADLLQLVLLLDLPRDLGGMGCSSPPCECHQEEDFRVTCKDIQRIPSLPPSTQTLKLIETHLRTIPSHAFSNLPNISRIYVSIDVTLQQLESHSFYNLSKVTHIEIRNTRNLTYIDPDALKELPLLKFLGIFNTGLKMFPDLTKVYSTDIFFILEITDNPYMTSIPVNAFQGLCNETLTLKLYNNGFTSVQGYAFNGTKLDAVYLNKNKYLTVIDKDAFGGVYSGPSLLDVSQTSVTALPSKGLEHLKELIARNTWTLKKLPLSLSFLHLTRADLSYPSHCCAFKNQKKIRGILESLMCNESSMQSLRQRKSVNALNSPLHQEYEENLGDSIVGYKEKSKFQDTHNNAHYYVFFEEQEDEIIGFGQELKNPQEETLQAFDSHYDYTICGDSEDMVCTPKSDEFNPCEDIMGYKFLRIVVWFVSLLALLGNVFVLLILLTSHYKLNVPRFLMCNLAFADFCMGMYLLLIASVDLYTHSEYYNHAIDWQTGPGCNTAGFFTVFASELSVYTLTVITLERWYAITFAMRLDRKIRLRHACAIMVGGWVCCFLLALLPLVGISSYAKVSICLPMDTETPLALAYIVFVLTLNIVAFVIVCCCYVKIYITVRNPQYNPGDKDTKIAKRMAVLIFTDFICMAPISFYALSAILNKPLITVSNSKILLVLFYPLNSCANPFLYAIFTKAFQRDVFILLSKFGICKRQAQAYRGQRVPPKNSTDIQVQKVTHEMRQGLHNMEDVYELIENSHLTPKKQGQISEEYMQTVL
# Inconclusive results, whose numbers are uncertain, are shown with a selection of clear calls. Potencies of inconclusive entries are doubtful fits and often do not repeat. Active and inactive are the calls of the source. Calls follow the shape of the dose curve; as a rule, active = well fitted curve in the direction sought with a large enough effect; inconclusive = small, poorly fitted or top-dose-only effect, or effect the other way, or another doubt; inactive = no such curve, though single readings can be large or run the other way.
# Biological target: Thyrotropin receptor (Homo sapiens) (UniProt P16473)
# Assay: qHTS Assay for Antagonists of the Thyroid Stimulating Hormone Receptor: SAR for Probe
# Conditions: HEK293-TSHR, TSH-stimulated cAMP HTRF, 2 h; series mostly up to 57.5 µM
# Excerpt: TSH is an alpha/beta heterodimeric glycoprotein hormone secreted from the anterior pituitary gland which belongs to the glycoprotein hormone family. The actions of TSH are mediated by a seven-transmembrane receptor, which upon TSH binding couples preferentially to the G-alpha (s) protein (Gs), resulting in activation of adenylate cyclase and increase in cyclic adenosine 3', 5' monophosphate (cAMP). The TSH receptor (THSR) is mainly expressed in thyroid follicular cells and regulates their growth and function. This cell based assay was conducted on a TSHR transfected HEK 293 cell line, measuring cAMP stimulation using antibody-based Homogeneous Time Resolved Fluorescence (HTRF). Our goal is to identify small molecules that will inhibit (antagonize) the thyroid-stimulating hormone receptor (TSHR), a member of the 7 transmembrane-spanning receptor (7TMR) family of cell surface receptors. TSHR-mediated hyperthyroidism is important in thyroid pathology. The development of small molecule antagonists of TSHR may lead to therapeutic approaches for TSHR-mediated hyperthyroidism caused by constitutively activating mutations or stimulating auto-antibodies associated with Graves' disease. Graves' disease is the leading cause of hyperthyroidism and is caused by autoantibodies that stimulate TSHR (TsAbs) causing thyroid growth and unregulated overproduction of thyroid hormones and existing treatments have liabilities (agranulocytosis). In addition, TSHRs are known to be expressed in multiple extrathyroidal tissues including bone, brain, kidney, testis, fat and cells of the immune system but the role of the TSHR in these tissues is not clear. Therefore, TSHR antagonists/inverse agonists could be used as probes of extrathyroidal TSHR function. Finally, TSHR inverse agonists, which are a subclass of antagonists that inhibit agonist-independent (or basal or constitutive) TSHR signaling, could be used to inhibit TSH-independent signaling in patients with recurrent or metastatic thyroid cancer who are receiving thyroid hormone to suppress TSH. The present assay presents confirmation data for analogues of series of interest in the primary screening assay.
# An anti cAMP antibody contains a fluorescent cryptate tag (excitation 337 nm; emission 620 nm) and the acceptor is cAMP-d2 (excitation 620 nm; emission 665 nm). When antibody and cAMP-d2 interact and are excited by a 337 nm light, a FRET occurs resulting in emission at 665 nm. The assay is competition between cAMP-d2 and cAMP (from the cell lysate). The homogeneous protocol allows for one step dispense after stimulation that is automation friendly. Step, Parameter, Value, Description 1, Cells, 3 uL, 2000 TSHR freshly harvested cells/well 1536 TC treated White solid bottom plate (Cells resuspended in 10 mM HEPES buffered HBSS and 70 uM RO 20-1724) 2, Compound, 23 nL, Libraries and controls 3, Compound, 1 uL, EC80 TSH (4 nM final) 4, Time, 2 hours, 37C 5, Reagent, 2 uL, cAMP antibody diluted 1:20 in lysis buffer 6, Time, 30 minutes, Room temperature 7, Detector, HTRF settings, Viewlux
row,SMILES,Potency
1,COc1ccc(C2Nc3ccccc3C(=O)N2Cc2ccccc2)cc1COc1ccccc1OC (stereo not given),inactive
2,COc1ccc(-c2nc3ccc(NC(=O)CO)cc3c(=O)n2Cc2cccc(Cl)c2)cc1COc1ccc(NC(C)=O)cc1,"inconclusive: 5.62 µM [activator, full curve, poor fit]"
3,COc1ccc(-c2nc3ccc(Cl)cc3c(=O)n2Cc2ccccc2)cc1COc1ccc(NC(C)=O)cc1,"inconclusive: 0.447 µM [activator, full curve, poor fit]"
4,COc1ccc(CN(Cc2ccccc2)C(=O)c2ccc(OC)cc2O)cc1,"inconclusive: 5.01 µM [activator, full curve, poor fit]"
5,COc1ccc(O)c(C2Nc3ccccc3C(=O)N2Cc2ccccc2)c1 (stereo not given),inactive
6,COc1ccc(C(=O)N(Cc2ccccc2)Cc2ccc(OC)c(COc3ccc(NC(C)=O)cc3)c2)cc1,"inconclusive: 2 µM [activator, full curve, poor fit]"
7,Nc1ccccc1C(=O)NCc1ccco1,inactive
8,COc1ccc(C2Nc3ccccc3C(=O)N2Cc2ccc(C(C)(C)C)cc2)cc1COc1ccc(NC(C)=O)cc1 (stereo not given),"inconclusive: 1 µM [activator, full curve, poor fit]"
9,COc1ccc(C(=O)N(Cc2ccccc2)Cc2ccco2)c(O)c1,"inconclusive: 2.24 µM [activator, full curve, poor fit]"
10,COc1cccc(-c2nc(SC)nc3sc(C(=O)NC(C)(C)C)c(N)c23)c1,"inconclusive: 25.1 µM [inhibitor, partial curve, poor fit]"
11,O=c1c2ccccc2nc(-c2ccccc2O)n1Cc1ccccc1,inactive
12,COc1ccc(-c2nc3ccccc3c(=O)n2Cc2ccco2)cc1COc1ccc(NC(C)=O)cc1,"inconclusive: 1.41 µM [activator, full curve, poor fit]"
13,COc1ccc(-c2nc3cccc(OC)c3c(=O)n2Cc2ccccc2)cc1COc1ccc(NC(C)=O)cc1,"inconclusive: 3.16 µM [activator, full curve, poor fit]"
14,CCCCN1C(=O)c2ccccc2NC1c1ccc(OC)c(COc2c(C)cc(NC(C)=O)cc2C)c1 (stereo not given),"inconclusive: 206 µM [inhibitor, partial curve, poor fit]"
15,COc1ccc(C2Nc3ccccc3C(=O)N2Cc2ccco2)cc1COc1ccccc1C (stereo not given),inactive
16,COc1ccc(C2Nc3ccccc3C(=O)N2Cc2ccccc2)cc1COc1c(C)cc(NC(C)=O)cc1C (stereo not given),inactive
17,COc1ccc(C2Nc3ccccc3C(=O)N2Cc2ccco2)cc1COc1c(C)cc(NC(C)=O)cc1C (stereo not given),active: 36.6 µM
18,COc1ccc(C2Nc3ccccc3C(=O)N2Cc2ccco2)cc1COc1c(C(C)C)cccc1C(C)C (stereo not given),inactive
19,O=C(c1ccccc1O)N(Cc1ccco1)Cc1ccco1,"inconclusive: 50.1 µM [activator, partial curve, poor fit]"
20,COc1ccc(C2Nc3ccc(NC(=O)COC(C)=O)cc3C(=O)N2Cc2ccccc2)cc1COc1ccc(NC(C)=O)cc1 (stereo not given),"inconclusive: 11.2 µM [activator, partial curve, poor fit]"

row,SMILES,Potency
1,COc1ccc(C2Nc3ccccc3C(=O)N2Cc2ccc3c(c2)OCO3)cc1COc1c(C)cc(NC(C)=O)cc1C (stereo not given),inactive
2,O=C(c1ccccc1O)N(Cc1ccccc1)Cc1ccccc1,"inconclusive: 14.1 µM [activator, partial curve, poor fit]"
3,COc1ccc(CN(Cc2ccccc2)C(=O)c2ccccc2O)cc1COc1ccc(NC(C)=O)cc1,"inconclusive: 5.01 µM [activator, partial curve, poor fit]"
4,COc1ccc(C2Nc3ccc(NC(C)=O)cc3C(=O)N2Cc2ccccc2)cc1COc1ccc(NC(C)=O)cc1 (stereo not given),"inconclusive: 7.94 µM [activator, full curve, poor fit]"
5,COc1ccc(CN(Cc2ccccc2)C(=O)C2CC2)cc1COc1ccc(NC(C)=O)cc1,"inconclusive: 2.51 µM [activator, full curve, poor fit]"
6,COc1ccc(CN(Cc2ccccc2)C(=O)COC(C)=O)cc1COc1ccc(NC(C)=O)cc1,"inconclusive: 31.6 µM [activator, partial curve, poor fit]"
7,COc1ccc(C2Nc3ccccc3C(=O)N2Cc2ccccc2)cc1COc1ccc(NC(=O)c2ccccc2)cc1 (stereo not given),inactive
8,COc1ccc(C2Nc3ccccc3C(=O)N2Cc2cccs2)cc1COc1c(C)cccc1C (stereo not given),inactive
9,COc1ccc(C(=O)N(Cc2ccccc2)Cc2cccs2)c(O)c1,"inconclusive: 11.2 µM [activator, full curve, poor fit]"
10,COc1ccc(C2Nc3ccccc3C(=O)N2Cc2ccccn2)cc1COc1ccc(NC(C)=O)cc1 (stereo not given),"inconclusive: 28.2 µM [activator, partial curve, poor fit]"
11,COc1ccc(C2NC(=O)c3ccccc3N2)cc1COc1ccc(NC(C)=O)cc1 (stereo not given),"inconclusive: 63.1 µM [activator, partial curve, poor fit]"
12,COc1ccc(C(=O)N(Cc2cccs2)Cc2cccs2)c(O)c1,"inconclusive: 1.12 µM [activator, full curve]"
13,COc1ccc(C2Nc3ccccc3C(=O)N2Cc2ccccc2OC)cc1COc1c(C)cc(NC(C)=O)cc1C (stereo not given),inactive
14,COc1ccc(C2Nc3ccccc3C(=O)N2Cc2ccco2)cc1COc1ccc(NC(C)=O)cc1 (stereo not given),"inconclusive: 1.26 µM [activator, full curve]"
15,CCCCN1C(=O)c2ccccc2NC1c1ccc(OC)c(COc2ccc(NC(C)=O)cc2)c1 (stereo not given),"inconclusive: 0.794 µM [activator, full curve, poor fit]"
16,COc1ccc(C2Nc3ccccc3C(=O)N2Cc2ccc(C)o2)cc1COc1c(C)cccc1C (stereo not given),"inconclusive: 183 µM [inhibitor, partial curve, poor fit]"
17,COc1ccc(C2Nc3cccc(OC)c3C(=O)N2Cc2ccccc2)cc1COc1ccc(NC(C)=O)cc1 (stereo not given),"inconclusive: 17.8 µM [activator, partial curve, poor fit]"
18,CCc1cccc(CC)c1OCc1cc(C2Nc3ccccc3C(=O)N2Cc2ccco2)ccc1OC (stereo not given),"inconclusive: 81.9 µM [inhibitor, partial curve]"
19,COc1ccc(O)c(-c2nc3ccccc3c(=O)n2Cc2ccccc2)c1,inactive
20,COc1ccc(CN2C(=O)c3ccccc3NC2c2ccc(OC)c(COc3c(C)cc(NC(C)=O)cc3C)c2)cc1 (stereo not given),inactive

# Copied from the list:
# For Potency, COc1ccc(C2Nc3ccccc3C(=O)N2Cc2ccccc2)cc1COc1c(C)cc(NC(C)=O)cc1C (stereo not given) has inactive
# For Potency, COc1ccc(-c2nc3ccc(NC(=O)CO)cc3c(=O)n2Cc2cccc(Cl)c2)cc1COc1ccc(NC(C)=O)cc1 has inconclusive: 5.62 µM [activator, full curve, poor fit]
